These are yes or no findings as the source states them, for the method shown. In cells and extracts the contact can be indirect. A result given as binding can be weak or reduced; the word gives no strength.
Target: myc-tagged Fxr1 (UniProt P51114)
Experiment: co-IP; HEK293T transiently transfected, lysed 24 h later in Tween 20 buffer; Flag affinity gel, anti-c-Myc agarose affinity gel or anti-His affinity resin; immunoblot

Chains of the proteins cited; added tags and fusions are not shown. Lines headed by an entry give the natural chain unless they say otherwise; changes in a name come on top.
UniProt P51114: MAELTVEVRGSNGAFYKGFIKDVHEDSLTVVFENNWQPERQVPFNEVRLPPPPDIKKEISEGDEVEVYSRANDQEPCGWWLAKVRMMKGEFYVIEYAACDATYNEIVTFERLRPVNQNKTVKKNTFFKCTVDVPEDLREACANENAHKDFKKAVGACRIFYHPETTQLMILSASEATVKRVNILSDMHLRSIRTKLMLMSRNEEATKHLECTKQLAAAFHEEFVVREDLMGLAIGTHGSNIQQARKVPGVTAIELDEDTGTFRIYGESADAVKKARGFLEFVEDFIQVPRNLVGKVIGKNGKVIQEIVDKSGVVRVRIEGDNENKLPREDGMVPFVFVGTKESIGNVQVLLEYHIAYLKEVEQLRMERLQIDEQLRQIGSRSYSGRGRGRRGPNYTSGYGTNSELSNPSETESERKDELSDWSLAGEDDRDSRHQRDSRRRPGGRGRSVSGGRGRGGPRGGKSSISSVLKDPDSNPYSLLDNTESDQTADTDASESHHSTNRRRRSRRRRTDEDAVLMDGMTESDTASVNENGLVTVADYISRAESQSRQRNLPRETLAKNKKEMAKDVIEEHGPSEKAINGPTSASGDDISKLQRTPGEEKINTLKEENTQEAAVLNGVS
UniProt Q9UKT5: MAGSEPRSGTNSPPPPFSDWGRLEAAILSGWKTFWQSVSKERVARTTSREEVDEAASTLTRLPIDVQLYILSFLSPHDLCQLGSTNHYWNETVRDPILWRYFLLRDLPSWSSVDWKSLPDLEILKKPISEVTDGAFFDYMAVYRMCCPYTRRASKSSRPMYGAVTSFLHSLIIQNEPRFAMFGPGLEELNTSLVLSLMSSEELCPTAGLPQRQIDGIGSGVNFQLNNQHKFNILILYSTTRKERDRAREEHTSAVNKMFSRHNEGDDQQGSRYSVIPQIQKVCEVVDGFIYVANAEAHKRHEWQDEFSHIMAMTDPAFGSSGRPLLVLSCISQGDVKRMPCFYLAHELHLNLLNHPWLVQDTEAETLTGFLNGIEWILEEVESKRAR

Substance	binding
Fbxo4 C341W/A354R (from UniProt Q9UKT5)	binds
Flag-Fbxo4ΔF (from UniProt Q9UKT5)	binds
